# Results: article PMC3474824
# Amino acid sequences for entries named in this document (tags omitted).
# UniProt P05549: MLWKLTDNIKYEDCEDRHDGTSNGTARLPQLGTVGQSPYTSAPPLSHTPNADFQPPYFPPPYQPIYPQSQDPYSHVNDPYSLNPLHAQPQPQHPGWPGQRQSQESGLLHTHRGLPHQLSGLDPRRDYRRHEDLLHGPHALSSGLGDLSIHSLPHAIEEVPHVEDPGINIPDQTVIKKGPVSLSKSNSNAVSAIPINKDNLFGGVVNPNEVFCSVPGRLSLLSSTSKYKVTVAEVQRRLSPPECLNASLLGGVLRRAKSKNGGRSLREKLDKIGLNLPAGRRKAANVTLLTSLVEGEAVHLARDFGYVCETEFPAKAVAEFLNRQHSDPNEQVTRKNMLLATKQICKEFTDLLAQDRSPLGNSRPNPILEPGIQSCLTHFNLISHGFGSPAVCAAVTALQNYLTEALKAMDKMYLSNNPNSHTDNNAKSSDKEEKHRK
# Numbering of substitutions follows the chain as printed. Names may count otherwise. These are yes or no findings as the source states them, for the method shown. Binding seen in cells or lysates may run through a third protein. Some binding calls cover weakened binding; strength is not graded here.
# B1: CITED2-T166N, 35S-labelled (protein, UniProt Q99967 1-270)
# chain: MADHMMAMNHGRFPDGTNGLHHHPAHRMGMGQFPSPHHHQQQQPQHAFNALMGEHIHYGAGNMNATSGIRHAMGPGTVNGGHPPSALAPAARFNNSQFMGPPVASQGGSLPASMQLQKLNNQYFNHHPYPHNHYMPDLHPAAGHQMNGTNQHFRDCNPKHSGGSSNPGGSGGSSTPGGSGSSSGGGAGSSNSGGGSGSGNMPASVAHVPAAMLPPNVIDTDFIDEEVLMSLVIEMGLDRIKELPELWLGQNEFDFMTDFVCKQQPSRVSC
# modifications: 35S-labelled
# B2: CITED2 (wild type), 35S-labelled (protein, UniProt Q99967 1-270)
# chain: B1 chain with N166T
# modifications: 35S-labelled
# Target: GST-TFAP2A (UniProt P05549)
# Experiment: pull-down; GST fusion proteins (GST-TFAP2A, GST-EP300CH1) as bait, 35S-labelled CITED2 or CITED2-T166N as prey, read by autoradiography of gels; performed as previously described (ref. 10); only the target purified
row,Binder,binding
1,B1,binds
2,B2,binds
